Measurements taken from PMC8579991.
Results are given in words; binding and its absence hold for the method and conditions named. In cells and extracts the contact can be indirect. A result given as binding can be weak or reduced; the word gives no strength. Values belong to the molecule of their own block, whether it stands above or below them.

By UniProt entry, the sequences of proteins in these tests, tags left out. Where a name states a change or a piece, a line headed by the entry shows the natural chain unless it says otherwise. Residues count along the entry.
UniProt P02647: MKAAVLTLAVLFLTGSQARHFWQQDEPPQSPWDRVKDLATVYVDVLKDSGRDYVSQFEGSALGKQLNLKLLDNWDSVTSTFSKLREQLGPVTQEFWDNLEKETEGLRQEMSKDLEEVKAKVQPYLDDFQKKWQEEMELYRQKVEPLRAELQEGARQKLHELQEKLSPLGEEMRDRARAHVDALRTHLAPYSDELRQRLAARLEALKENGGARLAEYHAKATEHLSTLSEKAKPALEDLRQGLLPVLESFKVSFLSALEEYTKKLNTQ
UniProt P02652: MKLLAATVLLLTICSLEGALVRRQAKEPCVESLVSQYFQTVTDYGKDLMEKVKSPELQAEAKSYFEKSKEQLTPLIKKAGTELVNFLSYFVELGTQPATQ
UniProt P04114, residues 28-4563: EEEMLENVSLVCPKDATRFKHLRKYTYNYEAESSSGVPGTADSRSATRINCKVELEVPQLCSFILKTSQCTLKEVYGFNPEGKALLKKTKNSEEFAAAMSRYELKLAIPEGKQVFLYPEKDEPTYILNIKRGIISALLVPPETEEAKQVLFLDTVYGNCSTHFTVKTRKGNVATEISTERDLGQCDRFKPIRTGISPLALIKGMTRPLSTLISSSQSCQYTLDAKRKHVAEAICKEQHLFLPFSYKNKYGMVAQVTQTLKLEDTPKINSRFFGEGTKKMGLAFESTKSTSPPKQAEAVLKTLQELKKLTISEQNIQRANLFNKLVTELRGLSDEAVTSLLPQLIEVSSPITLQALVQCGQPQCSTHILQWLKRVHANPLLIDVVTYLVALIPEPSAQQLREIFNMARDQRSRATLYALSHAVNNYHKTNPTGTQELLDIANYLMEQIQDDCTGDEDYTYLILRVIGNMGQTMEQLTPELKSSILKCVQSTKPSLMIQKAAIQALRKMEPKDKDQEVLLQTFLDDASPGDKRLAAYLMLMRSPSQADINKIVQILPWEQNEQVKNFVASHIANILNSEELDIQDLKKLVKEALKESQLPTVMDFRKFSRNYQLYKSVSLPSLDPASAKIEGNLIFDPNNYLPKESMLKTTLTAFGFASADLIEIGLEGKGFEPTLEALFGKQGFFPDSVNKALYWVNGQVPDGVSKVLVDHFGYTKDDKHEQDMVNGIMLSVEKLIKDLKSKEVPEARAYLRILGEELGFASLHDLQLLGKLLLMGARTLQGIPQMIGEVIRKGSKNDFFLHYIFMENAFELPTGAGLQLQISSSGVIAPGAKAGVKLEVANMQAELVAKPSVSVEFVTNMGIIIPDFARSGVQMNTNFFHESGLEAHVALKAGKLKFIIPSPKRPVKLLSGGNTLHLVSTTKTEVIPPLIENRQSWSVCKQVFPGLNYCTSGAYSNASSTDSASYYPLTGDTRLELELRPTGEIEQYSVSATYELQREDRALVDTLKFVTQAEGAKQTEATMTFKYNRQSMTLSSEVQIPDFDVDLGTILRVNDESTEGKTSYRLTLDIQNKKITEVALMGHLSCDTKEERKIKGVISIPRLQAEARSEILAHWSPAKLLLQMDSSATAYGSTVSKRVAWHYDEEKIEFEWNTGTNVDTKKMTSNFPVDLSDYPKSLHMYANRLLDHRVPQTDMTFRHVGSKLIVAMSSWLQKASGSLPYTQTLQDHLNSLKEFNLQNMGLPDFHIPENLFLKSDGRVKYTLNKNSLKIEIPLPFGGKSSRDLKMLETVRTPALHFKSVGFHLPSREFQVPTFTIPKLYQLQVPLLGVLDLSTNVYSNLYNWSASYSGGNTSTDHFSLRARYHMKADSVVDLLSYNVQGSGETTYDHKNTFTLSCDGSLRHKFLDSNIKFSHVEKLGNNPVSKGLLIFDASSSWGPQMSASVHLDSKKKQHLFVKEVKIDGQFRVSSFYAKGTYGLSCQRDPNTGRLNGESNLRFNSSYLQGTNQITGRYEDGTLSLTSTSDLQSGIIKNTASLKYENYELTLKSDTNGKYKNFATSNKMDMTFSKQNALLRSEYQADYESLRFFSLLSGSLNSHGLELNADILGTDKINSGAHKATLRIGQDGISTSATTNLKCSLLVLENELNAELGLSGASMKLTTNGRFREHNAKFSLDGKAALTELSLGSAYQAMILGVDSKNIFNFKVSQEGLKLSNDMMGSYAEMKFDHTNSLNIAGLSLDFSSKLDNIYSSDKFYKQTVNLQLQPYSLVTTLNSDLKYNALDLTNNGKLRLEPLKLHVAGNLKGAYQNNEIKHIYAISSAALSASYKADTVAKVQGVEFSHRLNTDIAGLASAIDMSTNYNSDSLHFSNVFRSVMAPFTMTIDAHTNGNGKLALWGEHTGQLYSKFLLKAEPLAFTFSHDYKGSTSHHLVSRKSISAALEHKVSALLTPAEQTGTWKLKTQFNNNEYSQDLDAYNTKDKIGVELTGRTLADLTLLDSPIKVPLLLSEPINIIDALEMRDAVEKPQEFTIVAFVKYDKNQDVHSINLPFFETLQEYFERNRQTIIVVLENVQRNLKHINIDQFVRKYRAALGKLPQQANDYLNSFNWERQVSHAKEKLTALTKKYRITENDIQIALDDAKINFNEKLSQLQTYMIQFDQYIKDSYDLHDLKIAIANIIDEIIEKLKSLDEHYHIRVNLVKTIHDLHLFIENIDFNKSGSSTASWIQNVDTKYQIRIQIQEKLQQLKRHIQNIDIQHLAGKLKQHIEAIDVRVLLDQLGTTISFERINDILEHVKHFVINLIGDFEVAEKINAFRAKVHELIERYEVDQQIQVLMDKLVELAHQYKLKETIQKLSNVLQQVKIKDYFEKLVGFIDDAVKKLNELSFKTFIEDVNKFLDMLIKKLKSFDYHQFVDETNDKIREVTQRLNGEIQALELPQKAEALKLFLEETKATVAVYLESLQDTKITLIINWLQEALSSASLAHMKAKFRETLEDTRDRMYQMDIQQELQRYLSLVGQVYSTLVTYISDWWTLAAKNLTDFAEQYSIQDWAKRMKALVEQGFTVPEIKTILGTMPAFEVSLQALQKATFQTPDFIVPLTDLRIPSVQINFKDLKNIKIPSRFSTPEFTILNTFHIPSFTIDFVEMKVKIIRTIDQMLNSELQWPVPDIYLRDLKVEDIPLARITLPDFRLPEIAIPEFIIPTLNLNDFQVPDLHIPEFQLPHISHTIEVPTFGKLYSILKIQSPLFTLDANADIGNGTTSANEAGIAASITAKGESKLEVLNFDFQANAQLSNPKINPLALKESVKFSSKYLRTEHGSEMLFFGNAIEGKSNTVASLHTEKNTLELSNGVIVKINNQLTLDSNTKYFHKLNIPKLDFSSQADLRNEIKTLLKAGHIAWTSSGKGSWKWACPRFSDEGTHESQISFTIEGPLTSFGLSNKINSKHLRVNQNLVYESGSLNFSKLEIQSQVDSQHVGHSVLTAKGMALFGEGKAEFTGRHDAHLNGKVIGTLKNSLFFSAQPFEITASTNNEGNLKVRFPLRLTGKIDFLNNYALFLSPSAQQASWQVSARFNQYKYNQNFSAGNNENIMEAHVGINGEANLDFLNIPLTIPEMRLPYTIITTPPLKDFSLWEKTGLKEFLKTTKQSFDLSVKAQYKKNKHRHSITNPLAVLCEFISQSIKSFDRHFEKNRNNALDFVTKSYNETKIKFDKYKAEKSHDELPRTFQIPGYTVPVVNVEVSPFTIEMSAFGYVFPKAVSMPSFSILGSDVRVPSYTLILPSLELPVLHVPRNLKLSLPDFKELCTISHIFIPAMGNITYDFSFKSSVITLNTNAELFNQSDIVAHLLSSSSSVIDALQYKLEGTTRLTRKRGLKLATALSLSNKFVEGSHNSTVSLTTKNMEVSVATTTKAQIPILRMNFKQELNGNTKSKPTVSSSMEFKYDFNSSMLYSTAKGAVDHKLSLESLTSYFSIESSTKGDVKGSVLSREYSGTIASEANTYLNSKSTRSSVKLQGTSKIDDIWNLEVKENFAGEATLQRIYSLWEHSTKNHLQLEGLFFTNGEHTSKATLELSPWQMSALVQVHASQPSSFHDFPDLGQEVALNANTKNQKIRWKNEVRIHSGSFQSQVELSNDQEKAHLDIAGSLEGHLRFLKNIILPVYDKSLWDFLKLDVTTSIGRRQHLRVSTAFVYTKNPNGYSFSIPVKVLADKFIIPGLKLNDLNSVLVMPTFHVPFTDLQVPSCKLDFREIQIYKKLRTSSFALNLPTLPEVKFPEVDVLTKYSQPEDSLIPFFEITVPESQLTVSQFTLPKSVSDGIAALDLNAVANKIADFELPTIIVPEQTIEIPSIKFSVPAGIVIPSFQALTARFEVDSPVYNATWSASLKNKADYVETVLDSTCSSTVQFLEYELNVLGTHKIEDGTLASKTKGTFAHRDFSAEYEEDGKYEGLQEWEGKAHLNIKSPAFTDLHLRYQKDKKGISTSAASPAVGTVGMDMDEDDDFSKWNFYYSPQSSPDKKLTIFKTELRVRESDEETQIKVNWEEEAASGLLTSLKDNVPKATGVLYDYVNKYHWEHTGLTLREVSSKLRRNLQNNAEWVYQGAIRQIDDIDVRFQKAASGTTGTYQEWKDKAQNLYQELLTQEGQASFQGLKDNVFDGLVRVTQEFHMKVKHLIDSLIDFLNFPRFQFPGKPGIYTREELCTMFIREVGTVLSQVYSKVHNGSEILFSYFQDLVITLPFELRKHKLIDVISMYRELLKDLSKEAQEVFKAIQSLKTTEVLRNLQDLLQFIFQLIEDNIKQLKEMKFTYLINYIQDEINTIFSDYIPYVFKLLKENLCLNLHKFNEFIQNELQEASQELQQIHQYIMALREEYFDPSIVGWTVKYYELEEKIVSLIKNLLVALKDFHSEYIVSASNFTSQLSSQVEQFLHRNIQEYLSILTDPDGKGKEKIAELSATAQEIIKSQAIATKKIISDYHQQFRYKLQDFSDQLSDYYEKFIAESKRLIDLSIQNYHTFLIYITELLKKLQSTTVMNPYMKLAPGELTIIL
UniProt Q8NBP7: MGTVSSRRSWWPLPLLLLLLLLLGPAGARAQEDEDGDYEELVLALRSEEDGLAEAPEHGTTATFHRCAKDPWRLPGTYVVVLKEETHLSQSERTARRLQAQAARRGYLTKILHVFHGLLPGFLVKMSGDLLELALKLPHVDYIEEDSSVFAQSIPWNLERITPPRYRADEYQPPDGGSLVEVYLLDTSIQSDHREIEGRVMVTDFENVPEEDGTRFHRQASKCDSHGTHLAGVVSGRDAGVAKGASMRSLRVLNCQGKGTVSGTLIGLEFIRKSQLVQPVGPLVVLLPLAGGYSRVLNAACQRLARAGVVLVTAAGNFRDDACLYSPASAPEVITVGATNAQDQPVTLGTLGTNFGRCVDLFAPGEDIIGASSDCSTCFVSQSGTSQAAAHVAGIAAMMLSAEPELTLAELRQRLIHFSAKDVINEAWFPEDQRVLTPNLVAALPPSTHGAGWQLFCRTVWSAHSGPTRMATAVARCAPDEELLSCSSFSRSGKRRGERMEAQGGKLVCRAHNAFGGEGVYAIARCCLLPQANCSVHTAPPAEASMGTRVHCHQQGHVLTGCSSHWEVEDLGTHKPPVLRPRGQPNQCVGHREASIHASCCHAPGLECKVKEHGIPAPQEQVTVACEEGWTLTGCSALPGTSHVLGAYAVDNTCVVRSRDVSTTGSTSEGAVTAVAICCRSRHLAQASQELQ

Tests used:
[1] = target: apolipoprotein A1 (apoA1) (human (endogenous in plasma)) (UniProt P02647); assay: cross-linking; XLMS with DSSO; which sample (plasma, immunoHDL or ucHDL) is not told
[2] = target: apolipoprotein A1 (apoA1) (human (endogenous in plasma)) (UniProt P02647); assay: cross-linking; XLMS with DSSO on ucHDL spiked with recombinant PCSK9 before analysis; cross-links of PCSK9 to HDL proteins; only the binder purified
[3] = target: apolipoprotein A2 (apoA2) (human (endogenous in plasma)) (UniProt P02652); assay: cross-linking; XLMS with DSSO (1 mmol/L) on immunoHDL (HDL immuno-isolated from plasma, n=8 healthy subjects, pooled)
[4] = target: apolipoprotein A2 (apoA2) (human (endogenous in plasma)) (UniProt P02652); assay: cross-linking; XLMS with DSSO on ucHDL; cross-links among the HDL's own proteins

binding [1]: binds
Molecule: apolipoprotein B (apoB) (from UniProt P04114 28-4563)

binding [2]: binds
Molecule: recombinant HIS (polyhistidine)-tagged PCSK9 (from UniProt Q8NBP7)

binding [3]: binds
binding [4]: binds
B1: apolipoprotein C1 (apoC1) (protein, UniProt P02654 27-83)
chain: TPDVSSALDKLKEFGNTLEDKARELISRIKQSELSAKMREWFSETFQKVKEKLKIDS
